Results taken from PubChem BioAssay AID330 (DTP/NCI, 2004).
The list shows only some results of the screen, not a fair sample: it gathers tests that were run many times, whatever their T/C, doses with no T/C, and many T/C values between a quarter and a half above the control. Further doses and runs are listed elsewhere. T/C gives the treated animals as a percentage of the vehicle group. Some entries give survivors of the animals treated and no T/C: the source files T/C as zero there, which appears to mark a toxic dose or a test without result, not a measured value. Some survivor counts are full or nearly so, which does not show that the dose was tolerated: the source hardly ever lists a survival T/C far under the control, and the zero likely stands for such cases as well. Survivors were counted at the toxicity check, usually on the fifth day, unless a day is given; later deaths do not show. Schedules are NCI's codes, read here as Q, the interval in days (D) or hours (H), X, the number of doses. Some structures stand for samples that the source files as different forms (salt, stereo form or complex); doses refer to the form tested. Some entries hold several experiments; their values stand side by side, smallest first. For survival time, the PubChem record calls one and a half times the control and up active, and a quarter to a half above the control has no call in these data; cut-offs in other NCI protocols can differ. Signs of the kind (2×) stand for listed records that agree. Some T/C values are followed by the survivors on the day toxicity was checked, most often the fifth; without a count, all were alive then.

Tested on: P388 leukemia ip, CD2F1 mice, survival T/C
Experiment: NCI In Vivo Anticancer Drug Screen. Data for tumor model P388 Leukemia (intraperitoneal) in CD2F1 (CDF1) mice
Conditions: T/C endpoint: median survival time, higher T/C = longer survival
[1] = dose: 100.0 mg/kg/injection, schedule: Q01DX009 (ip), vehicle: Klucel (hydroxypropylcellulose) (HPC)
[2] = dose: 50.0 mg/kg/injection, schedule: Q01DX009 (ip), vehicle: saline
[3] = dose: 100.0 mg/kg/injection, schedule: Q01DX009 (ip), vehicle: saline
[4] = dose: 200.0 mg/kg/injection, schedule: Q01DX009 (ip), vehicle: saline
[5] = dose: 200.0 mg/kg/injection, schedule: Q04DX003 (ip), vehicle: saline with Tween-80
[6] = dose: 400.0 mg/kg/injection, schedule: Q04DX003 (ip), vehicle: saline with Tween-80
[7] = dose: 25.0 mg/kg/injection, schedule: Q01DX009 (ip), vehicle: saline
[8] = dose: 120.0 mg/kg/injection, schedule: Q01DX005 (ip), vehicle: saline with Tween-80
[9] = dose: 50.0 mg/kg/injection, schedule: Q01DX009 (ip), vehicle: Klucel (hydroxypropylcellulose) (HPC)
[10] = dose: 50.0 mg/kg/injection, schedule: Q01DX005 (ip), vehicle: saline with Tween-80
[11] = dose: 100.0 mg/kg/injection, schedule: Q01DX005 (ip), vehicle: saline with Tween-80
[12] = dose: 200.0 mg/kg/injection, schedule: Q01DX005 (ip), vehicle: saline with Tween-80
[13] = dose: 200.0 mg/kg/injection, schedule: Q01DX005 (ip), vehicle: Klucel (hydroxypropylcellulose) (HPC)

CCCCC(=O)N(c1ccc(Nc2c3ccccc3nc3cc([N+](=O)[O-])ccc23)cc1)S(C)(=O)=O
T/C (dose: 0.18 mg/kg/injection, schedule: Q01DX009 (ip), vehicle: saline with Tween-80): 130 % of control
T/C (dose: 0.27 mg/kg/injection, schedule: Q01DX009 (ip), vehicle: saline with Tween-80): 132 % of control
T/C (dose: 0.4 mg/kg/injection, schedule: Q01DX009 (ip), vehicle: saline with Tween-80): 134 % of control
T/C (dose: 0.6 mg/kg/injection, schedule: Q01DX009 (ip), vehicle: saline with Tween-80): 138 % of control
T/C (dose: 1.25 mg/kg/injection, schedule: Q01DX009 (ip), vehicle: saline with Tween-80): 145 % of control
T/C (dose: 1.5 mg/kg/injection, schedule: Q04DX003 (ip), vehicle: saline with Tween-80): 135 % of control
survivor count (dose: 18.7 mg/kg/injection, schedule: Q01DX009 (ip), vehicle: saline with Tween-80): 6 of 6
survivor count (dose: 37.5 mg/kg/injection, schedule: Q01DX009 (ip), vehicle: saline with Tween-80): 6 of 6
survivor count (dose: 75.0 mg/kg/injection, schedule: Q01DX009 (ip), vehicle: saline with Tween-80): 6 of 6
survivor count (dose: 83.3 mg/kg/injection, schedule: Q04DX003 (ip), vehicle: water): 8 of 8

CC(=O)NNc1ccc(Cl)cc1[N+](=O)[O-]
survivor count (dose: 200.0 mg/kg/injection, schedule: Q01DX009 (ip), vehicle: Klucel (hydroxypropylcellulose) (HPC)): 5 of 6

COc1ccc(C2CCCCCC2)c(OC)c1OC
survivor count [1]: 5 of 6

NC(Cc1ccccc1)C(=O)OCN1C(=O)C2C3C=CC(C2C1=O)C1C2C(=O)N(COC(=O)C(N)Cc4ccccc4)C(=O)C2C31 (centres undefined)
T/C [2]: 129 % of control
T/C (dose: 50.0 mg/kg/injection, schedule: Q01DX009 (ip), vehicle: water): 134 and 137 % of control
T/C [3]: 136 % of control
T/C (dose: 100.0 mg/kg/injection, schedule: Q01DX009 (ip), vehicle: water): 131 and 139 % of control
survivor count [4]: 2 of 6
survivor count (dose: 200.0 mg/kg/injection, schedule: Q01DX009 (ip), vehicle: water): 2 of 6 and 5 of 6

COP(=O)(O)OC.[V]
survivor count [5]: 5 of 6
survivor count [6]: 1 of 6

COC1=C(OC)C(=O)C=CC1=O
survivor count (dose: 12.5 mg/kg/injection, schedule: Q01DX009 (ip), vehicle: saline): 3 of 6
survivor count [7]: 0 of 6
survivor count [2]: 0 of 6

C[n+]1c(-c2ccc(/C=N/Nc3ccnc(N/N=C/c4ccc(-c5cn6ccccc6[n+]5C)cc4)n3)cc2)cn2ccccc21
T/C (dose: 15.0 mg/kg/injection, schedule: Q01DX005 (ip), vehicle: saline with Tween-80): 131 % of control
T/C (dose: 60.0 mg/kg/injection, schedule: Q01DX005 (ip), vehicle: saline with Tween-80): 144 % of control
survivor count [8]: 0 of 6
survivor count (dose: 240.0 mg/kg/injection, schedule: Q01DX005 (ip), vehicle: saline with Tween-80): 0 of 6

Oc1cc(CN2CCOCC2)c(O)cc1CN1CCOCC1
T/C (dose: 6.25 mg/kg/injection, schedule: Q01DX009 (ip), vehicle: saline with Tween-80): 126 % of control
T/C (dose: 12.5 mg/kg/injection, schedule: Q01DX009 (ip), vehicle: saline with Tween-80): 126 % of control
T/C (dose: 25.0 mg/kg/injection, schedule: Q01DX009 (ip), vehicle: saline with Tween-80): 128 % of control

COc1cccc2c1C(=O)c1c(O)c3c(c(O)c1C2=O)C[C@@](O)(C(=O)CO)C[C@@H]3OC1CC(NC(=S)Nc2ccc3ccccc3c2)C(O)C(C)O1 (some centres undefined)
T/C [3]: 126 % of control
T/C [4]: 133 % of control

N/N=C(/N)[Se]
survivor count [7]: 3 of 6
survivor count [2]: 1 of 6
survivor count [3]: 0 of 6
survivor count [4]: 0 of 6

CNc1ccc2ccc(N(C)C)cc2n1
survivor count (dose: 100.0 mg/kg/injection, schedule: Q04DX002 (ip), vehicle: Klucel (hydroxypropylcellulose) (HPC)): 2 of 6
survivor count (dose: 200.0 mg/kg/injection, schedule: Q04DX002 (ip), vehicle: Klucel (hydroxypropylcellulose) (HPC)): 0 of 6
survivor count (dose: 400.0 mg/kg/injection, schedule: Q04DX002 (ip), vehicle: Klucel (hydroxypropylcellulose) (HPC)): 0 of 6

CN1CC(=O)NC2C=CN(Cc3c(Cl)cccc3Cl)C=C2C1=O (centres undefined)
survivor count [8]: 6 of 6

Nc1ccccc1.O=C([CH-]C(=O)C(F)(F)F)c1ccccc1.O=C([CH-]C(=O)C(F)(F)F)c1ccccc1.O=C([CH-]C(=O)C(F)(F)F)c1ccccc1.O=C([CH-]C(=O)C(F)(F)F)c1ccccc1.[Eu+3]
survivor count [9]: 6 of 6

C[n+]1ccc(NC(=O)c2ccc(NC(=O)c3cccc(C(=O)Nc4ccc(C(=O)Nc5cc[n+](C)cc5)cc4)c3)cc2)cc1
T/C (dose: 25.0 mg/kg/injection, schedule: Q04DX003 (ip), vehicle: saline with Tween-80): 129 and 136 % of control
survivor count (dose: 100.0 mg/kg/injection, schedule: Q01DX009 (ip), vehicle: saline with Tween-80): 6 of 6
survivor count (dose: 150.0 mg/kg/injection, schedule: Q04DX003 (ip), vehicle: saline with Tween-80): 3 of 6
survivor count [5]: 5 of 6
survivor count [6]: 0 of 6

CC(C)=CCC(OC(=O)CC(C)C)C1=CC(=O)c2c(O)ccc(O)c2C1=O (centres undefined)
survivor count [10]: 5 of 5
survivor count [11]: 0 of 5
survivor count [12]: 0 of 5

CNc1ncnc2c1ccn2C1OC(CO)C(O)C1O (centres undefined)
survivor count [10]: 6 of 6
survivor count [11]: 1 of 6
survivor count [12]: 0 of 6

C=C1C(O)C2(O)OCC34C(CC5C(C)=CC(=O)C(O)C5(C)C23)OC(=O)C(OC(=O)C/C=C(\C)CCCCC)C14 (centres undefined)
T/C (dose: 0.25 mg/kg/injection, schedule: Q01DX005 (ip), vehicle: saline + alcohol): 138 % of control
T/C (dose: 0.5 mg/kg/injection, schedule: Q01DX005 (ip), vehicle: saline + alcohol): 142 % of control (2×)
T/C (dose: 1.0 mg/kg/injection, schedule: Q01DX005 (ip), vehicle: saline + alcohol): 144 and 146 % of control
T/C (dose: 2.0 mg/kg/injection, schedule: Q01DX005 (ip), vehicle: saline + alcohol): 146 % of control [5 of 6 alive]

COc1cc2c(c(C(C)(C)C)c1)OC1(O)C2=CC(=O)C=C1C(C)(C)C (centres undefined)
survivor count [13]: 0 of 6

CCN(CC)c1c(C)nnc2c3c(-c4ccccc4)c(-c4ccccc4)nnc3nn12
survivor count (dose: 100.0 mg/kg/injection, schedule: Q04DX003 (ip), vehicle: saline with Tween-80): 6 of 6

Clc1ccc(C2=CSC3=NCCN23)cc1
survivor count [9]: 6 of 6
survivor count [1]: 0 of 6

COc1ccc2c(C)cc(N/N=C(\C)c3ccccn3)nc2c1
survivor count (dose: 100.0 mg/kg/injection, schedule: Q01DX005 (ip), vehicle: Klucel (hydroxypropylcellulose) (HPC)): 6 of 6
survivor count [13]: 1 of 6

CNC(=O)Oc1ccc2c(c1)[C@]1(C)CCN(C)O[C@@H]1N2C
survivor count (dose: 3.12 mg/kg/injection, schedule: Q01DX005 (ip), vehicle: Klucel (hydroxypropylcellulose) (HPC)): 5 of 5
survivor count (dose: 12.5 mg/kg/injection, schedule: Q01DX005 (ip), vehicle: Klucel (hydroxypropylcellulose) (HPC)): 0 of 5
survivor count (dose: 25.0 mg/kg/injection, schedule: Q01DX005 (ip), vehicle: Klucel (hydroxypropylcellulose) (HPC)): 0 of 5
survivor count (dose: 50.0 mg/kg/injection, schedule: Q01DX005 (ip), vehicle: Klucel (hydroxypropylcellulose) (HPC)): 0 of 5

CCN(CC)CCN1C(=O)c2cccc(N)c2C1=O
survivor count (dose: 200.0 mg/kg/injection, schedule: Q01DX005 (ip), vehicle: saline): 0 of 5

COC(=O)Cn1/c(=N\N=C\c2ccc([N+](=O)[O-])cc2)sc2ccccc21
survivor count (dose: 100.0 mg/kg/injection, schedule: Q01DX001 (ip), vehicle: saline with Tween-80): 6 of 6
survivor count (dose: 200.0 mg/kg/injection, schedule: Q01DX001 (ip), vehicle: saline with Tween-80): 6 of 6
